In PubChem BioAssay AID248 (DTP/NCI, 2004) one finds T/C and survivor count data, which are given here for seven compounds.

The list does not hold the whole screen: it covers a few groups of compounds. Not every dose and run of a compound is shown. T/C gives the treated animals as a percentage of the vehicle group. Some doses have a count of surviving animals in place of a T/C: the source holds a T/C of zero for them, seemingly a mark for toxic or unscored doses. Survivors were counted at the toxicity check, usually on the fifth day, unless a day is given; later deaths do not show. Schedule codes are those of the source, taken here to give the interval after Q, in days (D) or hours (H), and the number of doses after X. Some schedules carry Z or #; the key to these is not given. Where survival is the endpoint, the PubChem record calls one and a half times the control and up active, and a quarter to a half above the control has no call in these data; cut-offs in other NCI protocols can differ. Some doses were run more than once; the results are listed from low to high. Some T/C values carry the count of animals alive at the toxicity check (mostly the fifth day); without a count or a note in brackets, all were alive then. Some entries show no survivor count and are marked so; the dose need not have been tolerated. Some metal complexes and salts are drawn in pieces, as in the source, so charges may not balance.

This assay relates to L1210 leukemia ip in BDF1 mice, survival T/C. Kind of assay: NCI In Vivo Anticancer Drug Screen. Data for tumor model L1210 Leukemia (intraperitoneal) in B6D2F1 (BDF1) mice. The note with it: T/C endpoint: mean survival time, higher T/C = longer survival.
Setting [1] is: dose: 100.0 mg/kg/injection, schedule: Q04DX003 (ip), vehicle: Klucel (hydroxypropylcellulose) (HPC).
The mark [2] stands for this setting: dose: 200.0 mg/kg/injection, schedule: Q04DX003 (ip), vehicle: Klucel (hydroxypropylcellulose) (HPC).
[3] abbreviates: dose: 400.0 mg/kg/injection, schedule: Q04DX003 (ip), vehicle: Klucel (hydroxypropylcellulose) (HPC).

With `O=C(O)Cc1ccc(N(CCCl)CCCl)cc1`, the T/C reads like this: (dose: 0.5 mg/kg/injection, schedule: Q01DX015 (ip), vehicle: carboxymethylcellulose (CMC)) 100 % of control; (dose: 1.0 mg/kg/injection, schedule: Q01DX015 (ip), vehicle: carboxymethylcellulose (CMC)) 100 [5 of 6 alive] and 107 % of control; (dose: 2.0 mg/kg/injection, schedule: Q01DX015 (ip), vehicle: carboxymethylcellulose (CMC)) 107 and 128 % of control; (dose: 2.0 mg/kg/injection, schedule: Q01DX Z (ip), vehicle: carboxymethylcellulose (CMC)) 111 % of control; (dose: 4.0 mg/kg/injection, schedule: Q01DX015 (ip), vehicle: carboxymethylcellulose (CMC)) 114 and 123 % of control; (dose: 4.0 mg/kg/injection, schedule: Q01DX Z (ip), vehicle: carboxymethylcellulose (CMC)) 124 % of control. The T/C is 125 % of control (dose: 6.0 mg/kg/injection, schedule: Q01DX015 (ip), vehicle: carboxymethylcellulose (CMC)); 128 % of control (dose: 6.0 mg/kg/injection, schedule: Q01DX Z (ip), vehicle: carboxymethylcellulose (CMC)); 109 and 150 % of control (dose: 8.0 mg/kg/injection, schedule: Q01DX015 (ip), vehicle: carboxymethylcellulose (CMC)); 114 and 124 % of control [5 of 6 alive] (dose: 8.0 mg/kg/injection, schedule: Q01DX Z (ip), vehicle: carboxymethylcellulose (CMC)); 100 % of control (dose: 10.0 mg/kg/injection, schedule: Q01DX001 (ip), vehicle: saline); 121 % of control (dose: 10.0 mg/kg/injection, schedule: Q01DX015 (ip), vehicle: carboxymethylcellulose (CMC)). The T/C by setting is: (dose: 10.0 mg/kg/injection, schedule: Q01DX Z (ip), vehicle: carboxymethylcellulose (CMC)) 122 % of control; (dose: 12.0 mg/kg/injection, schedule: Q01DX015 (ip), vehicle: carboxymethylcellulose (CMC)) 137 % of control; (dose: 12.0 mg/kg/injection, schedule: Q01DX Z (ip), vehicle: carboxymethylcellulose (CMC)) 107 % of control; (dose: 14.0 mg/kg/injection, schedule: Q01DX015 (ip), vehicle: carboxymethylcellulose (CMC)) 146 % of control; (dose: 16.0 mg/kg/injection, schedule: Q01DX015 (ip), vehicle: carboxymethylcellulose (CMC)) 90 and 141 % of control [5 of 6 alive]; (dose: 25.0 mg/kg/injection, schedule: Q01DX001 (ip), vehicle: saline) 100 % of control. The T/C (dose: 40.0 mg/kg/injection, schedule: Q01DX001 (ip), vehicle: saline) is 109 % of control and the T/C (dose: 60.0 mg/kg/injection, schedule: Q01DX001 (ip), vehicle: saline) was 104 % of control. Moreover, the survivor count is listed as 0 of 6 (dose: 16.0 mg/kg/injection, schedule: Q01DX Z (ip), vehicle: carboxymethylcellulose (CMC)); 0 of 6 (dose: 32.0 mg/kg/injection, schedule: Q01DX015 (ip), vehicle: carboxymethylcellulose (CMC)); 0 of 6 (dose: 64.0 mg/kg/injection, schedule: Q01DX015 (ip), vehicle: carboxymethylcellulose (CMC)); 2 of 6 (dose: 75.0 mg/kg/injection, schedule: Q01DX001 (ip), vehicle: saline); 1 of 6 (dose: 150.0 mg/kg/injection, schedule: Q01DX001 (ip), vehicle: saline); 0 of 6 (dose: 300.0 mg/kg/injection, schedule: Q01DX001 (ip), vehicle: saline).
With `CCN(CCCl)CC1OC(OC)C2OC(C)(C)OC12` (stereo not drawn), the T/C is, setting by setting: (dose: 6.25 mg/kg/injection, schedule: Q01DX009 (ip), vehicle: saline) 118 % of control; (dose: 8.2 mg/kg/injection, schedule: Q01DX009 (ip), vehicle: saline) 123 % of control; (dose: 12.5 mg/kg/injection, schedule: Q01DX009 (ip), vehicle: saline) 120 [5 of 6 alive] and 126 % of control; (dose: 18.0 mg/kg/injection, schedule: Q01DX009 (ip), vehicle: saline) 117 % of control; (dose: 25.0 mg/kg/injection, schedule: Q01DX009 (ip), vehicle: saline) 123 % of control. The survivor count is, setting by setting: (dose: 50.0 mg/kg/injection, schedule: Q01DX009 (ip), vehicle: saline) 1 of 6; (dose: 100.0 mg/kg/injection, schedule: Q01DX009 (ip), vehicle: saline) 0 of 6; (dose: 200.0 mg/kg/injection, schedule: Q01DX009 (ip), vehicle: saline) 0 of 6; (dose: 400.0 mg/kg/injection, schedule: Q01DX009 (ip), vehicle: saline) 0 of 6.
Consider `C1C[N-]1.C1C[N-]1.C1C[N-]1.[Br][Rh]([Br])[Br]`, for which the T/C was 101 % of control (dose: 100.0 mg/kg/injection, schedule: Q01DX009 (ip), vehicle: Klucel (hydroxypropylcellulose) (HPC)); 95 % of control (dose: 200.0 mg/kg/injection, schedule: Q01DX009 (ip), vehicle: Klucel (hydroxypropylcellulose) (HPC)); 101 % of control (dose: 400.0 mg/kg/injection, schedule: Q01DX009 (ip), vehicle: Klucel (hydroxypropylcellulose) (HPC)).
With `O=P(Cl)(Oc1ccccc1)N1CCCCC1` (stereo not drawn), the T/C (dose: 25.0 mg/kg/injection, schedule: Q04DX003 (ip), vehicle: Klucel (hydroxypropylcellulose) (HPC)) was 106 % of control; the T/C (dose: 50.0 mg/kg/injection, schedule: Q04DX003 (ip), vehicle: Klucel (hydroxypropylcellulose) (HPC)) was 104 % of control; the T/C under setting [1] was 90 and 98 % of control. In addition, the survivor count runs as follows: under setting [2], 0 of 6; under setting [3], 0 of 6.
Regarding `N#CCCN(CN(CN(CCC#N)[N+](=O)[O-])CN(CCC#N)[N+](=O)[O-])[N+](=O)[O-]`, the T/C (dose: 100.0 mg/kg/injection, schedule: Q01DX001 (ip), vehicle: carboxymethylcellulose (CMC)) is 93 % of control [survivor count not shown]; the T/C under setting [1] was 102 % of control [survivor count not shown]; the T/C (dose: 200.0 mg/kg/injection, schedule: Q01DX001 (ip), vehicle: carboxymethylcellulose (CMC)) is 102 % of control [survivor count not shown]; the T/C under setting [2] was 105 % of control [survivor count not shown]; the T/C (dose: 400.0 mg/kg/injection, schedule: Q01DX001 (ip), vehicle: carboxymethylcellulose (CMC)) is 100 % of control [survivor count not shown]; the T/C under setting [3] was 103 % of control [survivor count not shown].
`O=[N+]([O-])Cc1ccc([N+](=O)[O-])cc1`: the T/C by setting is: (dose: 9.38 mg/kg/injection, schedule: Q01DX001 (ip), vehicle: other) 90 % of control; (dose: 18.75 mg/kg/injection, schedule: Q01DX001 (ip), vehicle: other) 100 % of control; (dose: 37.5 mg/kg/injection, schedule: Q01DX001 (ip), vehicle: other) 95 % of control. Besides, the survivor count was 1 of 6 (dose: 75.0 mg/kg/injection, schedule: Q01DX001 (ip), vehicle: other); 1 of 6 (dose: 150.0 mg/kg/injection, schedule: Q01DX001 (ip), vehicle: other); 0 of 6 (dose: 300.0 mg/kg/injection, schedule: Q01DX001 (ip), vehicle: other).
Take `CCOP(C)(=S)Cl` (stereo not drawn): the T/C runs as follows: (dose: 12.5 mg/kg/injection, schedule: Q04DX002 (ip), vehicle: saline with Tween-80) 105 % of control [survivor count not shown]; (dose: 25.0 mg/kg/injection, schedule: Q04DX002 (ip), vehicle: saline with Tween-80) 97 % of control [survivor count not shown]; (dose: 50.0 mg/kg/injection, schedule: Q04DX002 (ip), vehicle: saline with Tween-80) 87 % of control [survivor count not shown].
